Measured values reported in patent publication US20020086983A1.
Results are given in words; binding and its absence hold for the method and conditions named. Binding seen in cells or lysates may run through a third protein. Some results given as binding are weak or reduced against the parent protein; the word gives no strength. For some assays here: Where a sequence is shown, tags or fusion partners need not be part of it.

Amino acid sequences for entries named in this document (tags omitted). A change or cut given only in a name is not applied to a line headed by its entry. Chains listed by the source or under a name are the forms on record and can include a tag or linker.
Flag-Mch5b C345A (Q14790, form named): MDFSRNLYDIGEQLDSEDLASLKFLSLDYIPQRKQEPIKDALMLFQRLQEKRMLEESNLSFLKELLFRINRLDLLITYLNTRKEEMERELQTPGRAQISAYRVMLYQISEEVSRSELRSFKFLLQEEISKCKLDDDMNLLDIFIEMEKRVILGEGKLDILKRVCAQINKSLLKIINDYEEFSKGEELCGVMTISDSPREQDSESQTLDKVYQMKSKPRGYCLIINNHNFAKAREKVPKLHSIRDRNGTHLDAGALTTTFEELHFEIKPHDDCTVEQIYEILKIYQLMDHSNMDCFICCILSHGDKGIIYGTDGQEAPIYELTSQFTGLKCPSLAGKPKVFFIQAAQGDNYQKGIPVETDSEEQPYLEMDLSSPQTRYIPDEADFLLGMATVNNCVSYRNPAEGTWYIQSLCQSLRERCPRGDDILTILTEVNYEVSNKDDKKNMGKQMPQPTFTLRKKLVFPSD
UniProt O75618: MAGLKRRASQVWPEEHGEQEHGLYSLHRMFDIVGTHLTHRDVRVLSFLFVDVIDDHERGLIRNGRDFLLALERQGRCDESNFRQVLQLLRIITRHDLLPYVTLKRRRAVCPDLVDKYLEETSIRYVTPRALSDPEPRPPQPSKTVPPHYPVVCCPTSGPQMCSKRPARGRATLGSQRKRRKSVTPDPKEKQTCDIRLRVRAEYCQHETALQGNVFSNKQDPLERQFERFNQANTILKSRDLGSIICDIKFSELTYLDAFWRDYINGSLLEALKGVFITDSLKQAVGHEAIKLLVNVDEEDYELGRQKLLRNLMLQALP

What was measured:
[1] = molecular target: Flag-Mch5b C345A (UniProt Q14790); test: co-immunoprecipitation from transfected 293 cells: anti-Flag IP, Western blot with HRP-T7 antibody
[2] = molecular target: T1, Flag-Mch4 C358A (UniProt Q92851); test: as above
T1 sequence (looked up): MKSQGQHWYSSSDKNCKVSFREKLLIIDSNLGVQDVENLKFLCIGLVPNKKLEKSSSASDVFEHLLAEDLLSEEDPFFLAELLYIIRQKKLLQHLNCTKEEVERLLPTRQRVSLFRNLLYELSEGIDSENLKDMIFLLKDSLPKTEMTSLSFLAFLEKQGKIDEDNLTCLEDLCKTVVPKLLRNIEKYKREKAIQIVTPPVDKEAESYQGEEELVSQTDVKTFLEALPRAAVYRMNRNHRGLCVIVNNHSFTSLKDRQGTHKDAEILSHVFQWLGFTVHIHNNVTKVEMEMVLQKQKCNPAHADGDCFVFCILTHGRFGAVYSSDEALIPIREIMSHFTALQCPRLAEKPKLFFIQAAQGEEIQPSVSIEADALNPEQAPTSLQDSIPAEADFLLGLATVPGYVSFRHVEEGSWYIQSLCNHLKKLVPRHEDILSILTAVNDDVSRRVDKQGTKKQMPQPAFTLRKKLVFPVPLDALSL

binding [1]: binds
binding [2]: binds
Substance: T7-FLAME-2 (from UniProt O75618 1-318)
